We go through 45 compounds from the supplement of paper PMC7752906.

Counter-ions that a name gives are not always drawn. The list shows a part of the results. This data set is noisy: repeats of one test often differ as much as different tests do.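 About 40 Schistosoma mansoni schistosomula per well were imaged over time in bright field and compared with 0.1% DMSO wells. A drug counts as a hit if its Mahalanobis distance reaches 2.47 or more, three standard deviations above the DMSO control mean. Degeneracy is the fraction of worms scored opaque.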

The assay has as its system Schistosoma mansoni schistosomula. The assay is described as follows: degeneracy (percent of somules classified as degenerate/opaque); higher = more parasite degeneration/death; extreme values may be limits of the assay. The conditions noted are these: 10 µM; 72 h.
`CC(Cc1ccccc1)(NC(=O)CN)c1ccccc1` (stereo not given) [Remacemide Hydrochloride] yielded a degeneracy of 22.7%.
In the case of `COc1ccc(Cc2cnc(N)nc2N)cc1OC` [Diaveridine] it was 4.65%; in that of `CC[C@H]1OC(=O)[C@H](C)[C@@H](O[C@H]2C[C@@](C)(OC)[C@@H](O)[C@H](C)O2)[C@H](C)[C@@H](O[C@@H]2O[C@H](C)C[C@H](N(C)C)[C@H]2O)[C@](C)(OC)C[C@@H](C)C(=O)[C@H](C)[C@@H](O)[C@]1(C)O` [Clarithromycin], 18.8%; in that of `CCCCC1=NC2(CCCC2)C(=O)N1Cc1ccc(-c2ccccc2-c2nnn[nH]2)cc1` [Irbesartan], 0%.
Compound `CCCCOC(=O)c1ccc(N)cc1` [Butamben] yielded a degeneracy of 6.25%.
With `O=C(Nc1ccc(C(=O)O)c(O)c1)c1ccccc1` [Benzoylpas], the degeneracy was determined as 0%.
Turning to `CCC(CC)(CC(=O)Nc1cccc(/C=C/c2nc(C3CCC3)cs2)c1)C(=O)O` [Cinalukast], the degeneracy was found to be 6.12%.
`CC(C)COCC(CN(Cc1ccccc1)c1ccccc1)N1CCCC1` (stereo not given) [Bepridil Hydrochloride] yielded a degeneracy of 100%.
In the case of `C=NC(C(=O)NC1C(=O)N2C1SC(C)(C)C2C(=O)O)c1ccccc1` (stereo not given) [Metampicillin Sodium] it was 3.33%.
Under `CC[C@@]1(O)C(=O)OCc2c1cc1n(c2=O)Cc2cc3c([N+](=O)[O-])cccc3nc2-1` [Rubitecan] stands 0%; under `O=C(CCCl)NCc1ccccc1` [Beclamide], 7.5%.
For the compound `CN[C@H](CC(C)C)C(=O)N[C@H]1C(=O)N[C@@H](CC(N)=O)C(=O)N[C@H]2C(=O)N[C@H]3C(=O)N[C@H](C(=O)N[C@H](C(=O)O)c4cc(O)cc(O)c4-c4cc3ccc4O)[C@H](O)c3ccc(c(Cl)c3)Oc3cc2cc(c3O[C@@H]2O[C@H](CO)[C@@H](O)[C@H](O)[C@H]2O[C@H]2C[C@](C)(N)[C@H](O)[C@H](C)O2)Oc2ccc(cc2Cl)[C@H]1O` [Vancomycin], the degeneracy amounted to 7.14%.
As to `CN[C@H](CC(C)C)C(=O)N[C@H]1C(=O)N[C@@H](CC(N)=O)C(=O)N[C@H]2C(=O)N[C@H]3C(=O)N[C@H](C(=O)N[C@H](C(=O)O)c4cc(O)cc(O)c4-c4cc3ccc4O)[C@H](O)c3ccc(c(Cl)c3)Oc3cc2cc(c3O[C@@H]2O[C@H](CO)[C@@H](O)[C@H](O)[C@H]2O[C@H]2C[C@](C)(N)[C@H](O)[C@H](C)O2)Oc2ccc(cc2Cl)[C@H]1O` [Vancomycin Hydrochloride], the degeneracy worked out at 11.4%.
The compound `COc1cc(C(=O)NS(=O)(=O)c2ccccc2C)ccc1Cc1cn(C)c2ccc(NC(=O)OC3CCCC3)cc12` [Zafirlukast] displayed a degeneracy of 14.6%.
For the compound `S=C1SCN(Cc2ccccc2)CN1Cc1ccccc1` [sulbentine], the degeneracy was 100%.
`O=C(O)c1cc(=O)c2ccccc2o1` [Chromocarb] came in with a degeneracy of 8.57%.
In the case of `C[C@]12CC[C@H]3C(=CCc4cc(O)ccc43)[C@@H]1CCC2=O` [Equilin] it was 28.1%.
The compound `C[C@]12C=CC(=O)C=C1CC[C@@H]1[C@@H]2[C@@H](O)C[C@@]2(C)[C@H]1CC[C@]2(O)C(=O)COP(=O)(O)O` [Prednisolone Sodium Phosphate] registered a degeneracy of 2.08%.
`Cc1c(C(N)=O)cc([N+](=O)[O-])cc1[N+](=O)[O-]` [Dinitolmide] came in with a degeneracy of 4.76%.
Regarding `CN(C)c1ccc2nc3ccc(=[N+](C)C)cc-3sc2c1` [Methylene Blue], the degeneracy came to 100%.
As to `Cc1ncc([N+](=O)[O-])n1CC(O)CCl` (stereo not given) [Ornidazole], the degeneracy came to 3.85%.
Compound `N#Cc1ccc2[nH]cc(CCCCN3CCN(c4ccc5oc(C(N)=O)cc5c4)CC3)c2c1` [Vilazodone Hydrochloride] gave a degeneracy of 88.9%.
`CN1C(C(=O)Nc2ccccn2)=C(O)c2sccc2S1(=O)=O` [Tenoxicam] yielded a degeneracy of 9.68%.
In turn, `O=C(Nc1ccccc1)c1ccccc1O` [Salicylanilide] registered a degeneracy of 21.4%.
`CS(=O)(=O)c1ccc(C2=C(c3ccccc3)C(=O)OC2)cc1` [Rofecoxib] registered a degeneracy of 3.7%.
Consider `CN(C)CCC=C1c2ccccc2CCc2ccccc21` [Amitriptyline], for which the degeneracy came out at 91.3%.
Compound `CCN(CC)CCOC(=O)C(c1ccccc1)C1CCCCC1` (stereo not given) [Drofenine Hydrochloride] gave a degeneracy of 40.5%.
Compound `COCC1=C(C(=O)OC(C)OC(=O)OC(C)C)N2C(=O)[C@@H](NC(=O)/C(=N\OC)c3csc(N)n3)[C@H]2SC1` (stereo not given in full) [Cefpodoxime Proxetil] yielded a degeneracy of 5.13%.
In the case of `COC(=O)C1=C(C)NC(C)=C(C(=O)O[C@H]2CCN(Cc3ccccc3)C2)[C@H]1c1cccc([N+](=O)[O-])c1` [Barnidipine] it was 10%.
For the compound `CCCCC(CC)CN1CN(CC(CC)CCCC)CC(C)(N)C1` (stereo not given) [hexetidine], the degeneracy is 100%.
`CNCC[C@H](Oc1cccc2ccccc12)c1cccs1` [Duloxetine Hydrochloride]: the degeneracy turned out to be 94.4%.
With `CC(=O)c1ccc2c(c1)N(CCCN1CCC(CCO)CC1)c1ccccc1S2` [Piperacetazine], the degeneracy is 100%.
`CCCN(CCC)C(=O)C(CCC(=O)O)NC(=O)c1ccccc1` (stereo not given) [Proglumide]: the degeneracy was determined as 5.13%.
In the case of `CCC(=O)c1ccc(O)cc1` [Paroxypropione] it was 7.69%; in that of `Cn1ccnc1S` [Thiamazole], 12.5%; in that of `Oc1ccc(Cl)c2cccnc12` [Cloxyquin], 100%.
Under `Nc1c(Br)cc(Br)cc1CN[C@H]1CC[C@H](O)CC1` [Ambroxol Hydrochloride] stands 13.2%; under `CC(C)(Sc1cc(C(C)(C)C)c(O)c(C(C)(C)C)c1)Sc1cc(C(C)(C)C)c(O)c(C(C)(C)C)c1` [Probucol], 0%; under `CC(=O)N[C@@H](CCC(N)=O)C(=O)O` [Aceglutamide], 2.86%.
`CN1CCCN=C1COC(=O)C(O)(c1ccccc1)C1CCCCC1` (stereo not given) [Oxyphencyclimine Hydrochloride] gave a degeneracy of 9.3%.
Turning to `CC(C)(Oc1ccc(Cl)cc1)C(=O)O` [Clofibric Acid], the degeneracy was determined as 0%.
Take `CCC(=O)OCC(=O)[C@@]1(OC(=O)CC)[C@H](C)CC2C3C([C@@H](O)C[C@@]21C)[C@@]1(C)C=CC(=O)C=C1C[C@H]3Cl` (stereo not given in full) [Alclometazone Dipropionate]: the degeneracy turned out to be 11.5%.
Take `CC(C)(S)[C@@H](N)C(=O)O` [Penicillamine]: the degeneracy turned out to be 4.88%.
In turn, `O=C(O)C1CSCN1` (stereo not given) [Timonacic] displayed a degeneracy of 6.67%.
`CCCCCCCCCCC[C@@H](C[C@@H]1OC(=O)[C@H]1CCCCCC)OC(=O)[C@H](CC(C)C)NC=O` [orlistat]: the degeneracy was 100%.
